Assay results: paper PMC12583452
These are yes or no findings as the source states them, for the method shown. Binding seen in cells or lysates may run through a third protein. Some entries that bind do so weakly or less than the wild type.

Amino acid sequences for entries named in this document (tags omitted).
UniProt O94874: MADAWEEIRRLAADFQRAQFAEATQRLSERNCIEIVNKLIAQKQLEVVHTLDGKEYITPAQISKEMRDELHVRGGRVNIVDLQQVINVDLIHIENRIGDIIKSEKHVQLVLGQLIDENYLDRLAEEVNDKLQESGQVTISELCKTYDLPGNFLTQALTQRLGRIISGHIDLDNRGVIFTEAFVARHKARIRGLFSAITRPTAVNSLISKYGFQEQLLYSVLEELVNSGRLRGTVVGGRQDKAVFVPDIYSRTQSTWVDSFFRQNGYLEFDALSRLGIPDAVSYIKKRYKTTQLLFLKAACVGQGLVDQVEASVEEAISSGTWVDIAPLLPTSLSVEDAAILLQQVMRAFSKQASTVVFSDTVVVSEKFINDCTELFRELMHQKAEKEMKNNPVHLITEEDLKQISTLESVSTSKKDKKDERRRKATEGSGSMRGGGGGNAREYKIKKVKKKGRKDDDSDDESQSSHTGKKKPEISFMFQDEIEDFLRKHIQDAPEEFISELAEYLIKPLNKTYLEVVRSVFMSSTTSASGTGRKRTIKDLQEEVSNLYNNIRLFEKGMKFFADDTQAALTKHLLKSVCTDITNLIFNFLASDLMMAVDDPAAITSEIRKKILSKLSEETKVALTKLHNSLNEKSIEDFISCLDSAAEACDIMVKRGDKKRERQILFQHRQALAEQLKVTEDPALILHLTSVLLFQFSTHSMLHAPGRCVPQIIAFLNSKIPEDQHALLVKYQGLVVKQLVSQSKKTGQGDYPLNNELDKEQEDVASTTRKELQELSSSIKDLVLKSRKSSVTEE
UniProt P49736: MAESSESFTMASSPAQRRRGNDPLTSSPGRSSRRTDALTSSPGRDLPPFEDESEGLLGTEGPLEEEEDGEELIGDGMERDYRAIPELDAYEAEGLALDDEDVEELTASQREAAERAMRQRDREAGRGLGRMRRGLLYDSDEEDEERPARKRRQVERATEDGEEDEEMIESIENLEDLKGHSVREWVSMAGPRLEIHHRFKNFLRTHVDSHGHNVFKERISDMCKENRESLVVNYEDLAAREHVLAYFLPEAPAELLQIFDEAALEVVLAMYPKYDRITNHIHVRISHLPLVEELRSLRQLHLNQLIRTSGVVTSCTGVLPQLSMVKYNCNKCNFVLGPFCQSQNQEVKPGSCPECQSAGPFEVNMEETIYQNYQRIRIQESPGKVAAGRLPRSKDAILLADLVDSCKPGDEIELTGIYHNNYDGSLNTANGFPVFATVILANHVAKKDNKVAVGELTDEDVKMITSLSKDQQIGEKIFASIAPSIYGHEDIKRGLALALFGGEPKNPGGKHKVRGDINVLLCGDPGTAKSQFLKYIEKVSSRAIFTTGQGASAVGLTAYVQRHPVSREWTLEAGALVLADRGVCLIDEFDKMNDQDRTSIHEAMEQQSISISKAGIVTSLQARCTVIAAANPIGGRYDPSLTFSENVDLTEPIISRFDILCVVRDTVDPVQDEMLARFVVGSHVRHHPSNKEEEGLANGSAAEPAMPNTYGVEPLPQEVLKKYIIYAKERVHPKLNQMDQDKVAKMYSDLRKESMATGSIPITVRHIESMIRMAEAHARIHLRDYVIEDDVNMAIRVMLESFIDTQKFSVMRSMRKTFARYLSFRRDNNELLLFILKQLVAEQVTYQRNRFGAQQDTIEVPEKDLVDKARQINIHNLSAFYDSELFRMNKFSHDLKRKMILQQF

Target: UFL1 (endogenous, HEK293T) (human (endogenous in HEK293T)) (UniProt O94874)
Experiment: co-IP; endogenous; HEK293T cell lysates precipitated with an anti-UFL1 antibody or control IgG, western blot

- binding: binds
Substance: MCM2 (endogenous, HEK293T) (from UniProt P49736 1-904)
